Measured values as given in article PMC8615271.
No constants are given. Whether binding was seen depends on the method and setting.

Target: bovine milk lactoferrin (bovine)
Assay: far-Western, overlay or dot blot; reduced purified prey proteins (from 40 µM stocks, 3 µL) dotted on nitrocellulose; blocked with 5% skim milk in TBST; incubated with 0.2 µM reduced P5 in 20 mM Tris-HCl pH 7.6, 150 mM NaCl, 0.05% Tween 20 at 4 °C for 3 h; bound P5 detected with anti-P5 antiserum; both purified

B1: P5 (reduced form) (enzyme, UniProt Q15084 20-440)
chain: LYSSSDDVIELTPSNFNREVIQSDSLWLVEFYAPWCGHCQRLTPEWKKAATALKDVVKVGAVDADKHHSLGGQYGVQGFPTIKIFGSNKNRPEDYQGGRTGEAIVDAALSALRQLVKDRLGGRSGGYSSGKQGRSDSSSKKDVIELTDDSFDKNVLDSEDVWMVEFYAPWCGHCKNLEPEWAAAASEVKEQTKGKVKLAAVDATVNQVLASRYGIRGFPTIKIFQKGESPVDYDGGRTRSDIVSRALDLFSDNAPPPELLEIINEDIAKRTCEEHQLCVVAVLPHILDTGAAGRNSYLEVLLKLADKYKKKMWGWLWTEAGAQSELETALGIGGFGYPAMAAINARKMKFALLKGSFSEQGINEFLRELSFGRGSTAPVGGGAFPTIVEREPWDGRDGELPVEDDIDLSDVELDDLGKDEL
**Q.** How did the binding turn out when B1 was run?
**A.** no binding (tested: 0.2 μM)
